In publication PMC13434705 one finds binding data, which are given here for 1 substance.

The chains behind the UniProt entries cited, without tags or fusion partners.
UniProt P09874: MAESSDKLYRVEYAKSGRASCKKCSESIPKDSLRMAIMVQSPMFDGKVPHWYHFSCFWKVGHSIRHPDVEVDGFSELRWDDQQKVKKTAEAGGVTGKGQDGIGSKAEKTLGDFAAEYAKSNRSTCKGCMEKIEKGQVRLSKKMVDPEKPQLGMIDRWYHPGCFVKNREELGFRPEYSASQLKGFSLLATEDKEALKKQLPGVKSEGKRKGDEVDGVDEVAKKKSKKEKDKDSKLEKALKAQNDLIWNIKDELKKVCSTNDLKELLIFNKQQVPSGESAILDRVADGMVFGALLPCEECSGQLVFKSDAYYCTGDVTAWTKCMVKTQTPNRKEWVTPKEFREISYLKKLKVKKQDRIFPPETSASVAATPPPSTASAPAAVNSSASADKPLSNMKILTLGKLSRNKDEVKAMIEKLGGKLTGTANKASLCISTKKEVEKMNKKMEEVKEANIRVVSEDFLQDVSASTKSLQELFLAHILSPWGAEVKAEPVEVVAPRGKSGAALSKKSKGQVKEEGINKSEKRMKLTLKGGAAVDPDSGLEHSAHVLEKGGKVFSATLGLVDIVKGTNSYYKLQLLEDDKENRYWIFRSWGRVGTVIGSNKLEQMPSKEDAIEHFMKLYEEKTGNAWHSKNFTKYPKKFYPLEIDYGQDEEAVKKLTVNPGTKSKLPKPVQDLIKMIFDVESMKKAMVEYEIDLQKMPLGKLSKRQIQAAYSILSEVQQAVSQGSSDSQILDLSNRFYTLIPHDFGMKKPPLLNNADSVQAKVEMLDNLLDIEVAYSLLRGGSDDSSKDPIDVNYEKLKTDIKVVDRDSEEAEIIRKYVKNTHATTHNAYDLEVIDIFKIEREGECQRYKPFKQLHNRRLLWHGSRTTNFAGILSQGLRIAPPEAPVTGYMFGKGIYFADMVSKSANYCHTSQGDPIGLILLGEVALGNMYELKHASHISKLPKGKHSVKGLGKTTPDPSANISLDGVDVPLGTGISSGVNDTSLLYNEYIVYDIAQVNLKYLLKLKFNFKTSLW
UniProt P19474: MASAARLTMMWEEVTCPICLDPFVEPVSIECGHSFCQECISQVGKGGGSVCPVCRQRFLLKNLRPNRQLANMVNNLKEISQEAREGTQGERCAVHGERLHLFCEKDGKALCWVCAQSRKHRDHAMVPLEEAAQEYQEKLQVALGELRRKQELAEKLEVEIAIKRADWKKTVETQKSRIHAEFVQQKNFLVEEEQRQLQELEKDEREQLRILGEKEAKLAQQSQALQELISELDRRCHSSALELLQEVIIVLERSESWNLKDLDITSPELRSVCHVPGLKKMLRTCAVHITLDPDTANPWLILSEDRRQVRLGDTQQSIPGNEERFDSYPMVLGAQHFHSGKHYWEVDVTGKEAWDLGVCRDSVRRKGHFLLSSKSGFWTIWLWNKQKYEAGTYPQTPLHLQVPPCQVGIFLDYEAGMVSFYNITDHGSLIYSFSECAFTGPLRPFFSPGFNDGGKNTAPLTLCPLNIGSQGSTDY

This assay addresses Poly(ADP-ribose) polymerase 1 (PARP1), endogenous (human (endogenous in DMS273, SHP77, HEK293T)) (UniProt P09874). The assay can be described thus: affinity purification with mass spectrometry; HEK293T cell lysate immunoprecipitated with an anti-PARP1 antibody (control IgG), LC-MS/MS, n = 1.

These are yes or no findings as the source states them, for the method shown. In cells and extracts the contact can be indirect. Here binding means that the protein was enriched with, or labelled near, the bait; the list need not be complete.

Regarding “tripartite motif-containing 21 (TRIM21), endogenous (from UniProt P19474 1-475)”, the binding entry is listed as “binds”.
